Earlier results, collected in patent US6964952B2, “Therapeutic composition for broad spectrum dermal disease” (Doosan Corporation, priority 2001, dated 2005).
Some results were stated once for a whole list of compounds, not compound by compound.

Test system: ceramide synthesis in skin cells
Settings: topical application; 'it is known'; cited from earlier work

CCCCCCCCCCCCCC[C@@H](O)[C@@H](O)[C@@H](N)CO [phytosphingosine]
Increase of synthesis of glucosyl ceramide in skin cells: > 50%

tetraacetyl phytosphingosine
Increase of synthesis of glucosyl ceramide in skin cells: > 50%
